Source: patent US10201588B2, “Materials and methods of treating dyslipidemia” (UNIVERSITY OF MIAMI, priority 2017, dated 2019)
Marks after values point to notes of the source that are not given here.

System: T1D rats
Test: T1 diabetes animal model: metabolic cages (food and water intake, 24-h urine volume, body weight) and small intestine length
Assay type: in vivo, rat
[1] = T1D rats, MIA-602 25 μg/kg s.c. three times a week for 14 weeks, metabolic cages, 24 h, mean±SD

Phac-Ada-Ty^1-D-Arg^2-Asp^3-Ala^4-Ile^5-Phe(F)5^6-Thr^7-Ala^8-Har^9-Tyr(me)^10-His^11-Orn^12-Val^13-Leu^14-Abu^15-Glu^16-Leu^17-Ser^18-Ala^19-His^20-Orn^21-Leu^22-Leu^23-Glu^24-Asp^25-Ile^26-Nle^27-D-Arg^28-Har^29-NH2 [MIA-602]
Small intestine length, pylorus to ileocecal junction (MIA-602-diabetes rats, averaged value (diabetes 155.8±10.6, control 96±17.1)): 157.3±7.6 cm | Body weight (T1D rats, MIA-602 25 μg/kg s.c. three times a week for 14 weeks, mean±SD): 336.3 ± 59.7^c g | Food intake [1]: 32.9 ± 16.6^b g/day | Water intake [1]: 121.9 ± 37.5^a ml/day | 24-hour urine volume (T1D rats, MIA-602 25 μg/kg s.c. three times a week for 14 weeks, metabolic cages, mean±SD): 84.5 ± 25.9^a ml/day | Effect on body weight during the study (T1D rats, at any point during the study): did not affect
